In PubChem BioAssay AID588590 (National Center for Advancing Translational Sciences (NCATS), 2011):
In all, about 390,000 compounds went through this assay and about 4,000 (1%) were called active. This list was built around the results that the source calls inconclusive (neither active nor inactive); the mix of calls is not that of the screen. Calls come from the whole dose curve; as a rule, active = well fitted inhibition curve with a large enough effect; inconclusive = small, poorly fitted or top-dose-only effect, or another doubt; inactive = no such curve, though single readings can be large or run the other way. Potencies beside an inconclusive call are fits to weak or partial responses and may not hold up.

Amino acid sequences for entries named in this document (tags omitted). A change or cut given only in a name is not applied to a line headed by its entry.
UniProt Q9UNA4: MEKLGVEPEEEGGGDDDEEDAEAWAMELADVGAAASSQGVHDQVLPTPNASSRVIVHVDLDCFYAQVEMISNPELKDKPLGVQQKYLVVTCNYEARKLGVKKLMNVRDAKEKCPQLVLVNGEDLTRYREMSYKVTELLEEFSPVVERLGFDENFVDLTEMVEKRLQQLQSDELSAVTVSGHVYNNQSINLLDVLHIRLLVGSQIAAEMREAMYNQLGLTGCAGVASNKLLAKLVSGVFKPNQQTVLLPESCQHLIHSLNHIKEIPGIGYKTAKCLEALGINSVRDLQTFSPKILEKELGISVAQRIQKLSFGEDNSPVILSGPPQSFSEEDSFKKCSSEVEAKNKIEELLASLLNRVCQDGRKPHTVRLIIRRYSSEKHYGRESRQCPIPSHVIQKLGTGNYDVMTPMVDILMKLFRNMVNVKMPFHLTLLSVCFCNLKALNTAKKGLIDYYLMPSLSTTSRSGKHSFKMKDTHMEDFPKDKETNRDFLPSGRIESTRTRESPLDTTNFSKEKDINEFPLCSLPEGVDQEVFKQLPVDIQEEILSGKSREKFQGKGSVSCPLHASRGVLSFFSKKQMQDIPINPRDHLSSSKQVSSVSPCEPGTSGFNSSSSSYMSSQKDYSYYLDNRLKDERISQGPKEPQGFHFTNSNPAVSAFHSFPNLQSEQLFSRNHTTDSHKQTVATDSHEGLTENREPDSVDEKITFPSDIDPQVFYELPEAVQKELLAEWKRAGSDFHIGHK

target: DNA polymerase iota (Homo sapiens) (UniProt Q9UNA4); experiment: qHTS for Inhibitors of Polymerase Iota; details: Pol iota fluorescent replication assay, 10 min; series mostly up to 115 µM
How it was run: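 Fluorescent replication assay read twice, at 0 min and 10 min after adding 50 nM (final) substrate. Enzyme (10 nM) and compounds were first incubated 15 min at room temperature; enzyme-free buffer wells were negative controls.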
Potency is the fitted concentration of half-maximal effect.

Potency, inconclusive:
N/C(=N\OS(=O)(=O)c1ccc(Br)cc1)c1ccncc1 22.4 µM [inhibitor, partial curve, poor fit]
O=C(CNS(=O)(=O)c1cccc2nsnc12)NCCc1ccccc1 25.1 µM [inhibitor, partial curve, poor fit]
CCOc1ccc(CN2CCc3nc(N4CCN(c5ccccn5)CC4)ncc3C2)cc1OC 10 µM [inhibitor, partial curve, poor fit]
COc1ccccc1N1CCN(C(=O)C2CCN(S(=O)(=O)c3ccc4c(c3)CC(C)N4C(=O)C3CC3)CC2)CC1 (centres undefined) 89.1 µM [inhibitor, single point]
c1ccc(N2CCN(CC3CCCCC3)CC2)cc1 35.5 µM [inhibitor, partial curve, poor fit]
CCOC(=O)C1=C(C)N(C)C(=S)NC1c1ccc(Cl)cc1Cl (centres undefined) 89.1 µM [inhibitor, partial curve, poor fit]
NC(=O)c1ccc(N2CCCCC2)c(N2C(=O)CCC2=O)c1 31.6 µM [inhibitor, single point]
COc1ccc(-c2cnc(C)o2)cc1S(=O)(=O)Nc1ccc(F)cc1F 89.1 µM [inhibitor, single point]
COc1ccccc1C(c1nnnn1Cc1ccccc1)N1CCN(c2nc3ccccc3s2)CC1 (centres undefined) 10 µM [inhibitor, full curve, poor fit]
CCOc1ccc(-n2c(O)cc(=O)[nH]c2=O)cc1 22.4 µM [inhibitor, single point]

No new results follow: 3 of the compounds above.
Potency, inconclusive:
c1ccc(N2CCN(CC3CCCCC3)CC2)cc1 35.5 µM [inhibitor, partial curve, poor fit]
CCOC(=O)C1=C(C)N(C)C(=S)NC1c1ccc(Cl)cc1Cl (centres undefined) 89.1 µM [inhibitor, partial curve, poor fit]
NC(=O)c1ccc(N2CCCCC2)c(N2C(=O)CCC2=O)c1 31.6 µM [inhibitor, single point]

Following part:

Potency, active:
CCc1nnc(N/N=C\c2ccc(OC(C)=O)c(OC)c2)n1N 2 µM
CCc1ccc(Nc2nnc(SCC(=O)NC(=O)CN3CCCC3=O)s2)cc1 44.7 µM
Cc1cc(C)c(S(=O)(=O)Nc2ccc3oc4c(c3c2)C(=O)CC(C)(C)C4)cc1C 79.4 µM

Potency, inactive:
COc1ccc(C2CC(c3ccccc3)Oc3cc(C)c(Cl)c(C)c32)cc1 (centres undefined)
O=C(COC(=O)CNC(=O)c1sc2ccccc2c1Cl)Nc1c(Cl)cc(Cl)cc1Cl
Cc1ccc(CN2CC(C(=O)Nc3cc(S(C)(=O)=O)ccc3Cl)CC2=O)cc1 (centres undefined)
CCCCOc1ccc(-c2c(C#N)c(N)[nH]c(=S)c2C#N)cc1
COc1cc(OC)c(NC(=O)c2cn(C3CCCC3)c(=O)c3c2c2ccccc2n3C)cc1Cl
COc1ccc(C(CC(=O)c2ccccc2)C2CCCCC2=O)cc1 (centres undefined)
